Test results from PubChem BioAssay AID1487 (National Center for Advancing Translational Sciences (NCATS), 2009).
This is one part of the list. These are further read-outs of the screen, such as a control signal, another cell line or another target. No call is given for them. Compounds called inactive in the main read-out are mostly missing here. Potencies come from curve fits of mixed quality, noted in brackets.

Test: qHTS Assay for Modulators of Lamin A Splicing
Settings: HeLa LMNA splicing GFP/RFP minigene ratio, 48 h
Method in brief: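 S3 HeLa cells stably expressing lamin A-EGFP splicing minigene plus DsRed2, 600 cells/well, 48 h compound exposure at 37C. Laser-scanning cytometry; analysed as GFP (500-530 nm)/RFP (575-640 nm) total intensity ratio; 0.5% DMSO vehicle.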

[1] = measured here: RFP viability control channel
[2] = measured here: GFP splicing reporter channel

SMILES	AC50 [1]	AC50 [2]
Cc1c(Nc2nc(-c3cccc([N+](=O)[O-])c3)cs2)c(=O)n(-c2ccccc2)n1C	3.16 µM [falling, full curve]	–
CCOc1ccccc1NC(=O)CCNC(=O)c1ccc(Cl)cc1	–	35.5 µM [rising, single point]
COc1ccc(Cn2c(/C=C/c3ccccc3)nc3ccccc32)cc1	11.2 µM [falling, partial curve]	10 µM [falling, partial curve]
CCOC(=O)C1CCCN(Cc2nc3ccc([N+](=O)[O-])cc3c(=O)n2-c2ccc(OC)cc2OC)C1 (configuration not stated)	22.4 µM [rising, partial curve, poor fit]	–
Cc1ccc(C2C(C#N)=C(N)Oc3cc4c(cc32)OCO4)cc1 (configuration not stated)	3.16 µM [rising, single point]	–
CC(=O)Nc1ccc(/C=N/N2C(=O)NC(C)(c3ccc(OC(F)F)cc3)C2=O)cc1 (configuration not stated)	–	10 µM [rising, partial curve, poor fit]
O=C(CCc1nc(-c2ccccc2F)no1)NCCc1ccccc1Cl	35.5 µM [rising, single point]	–
COc1ccc(NC(=O)/C(C#N)=C\c2cc(C)n(-c3ccc4c(c3)OCO4)c2C)cc1	11.2 µM [rising, partial curve]	1 µM [rising, partial curve]
COC(=O)c1ccc2c(c1)C(C)(C)C(/C=C/c1ccc(O)cc1)=[N+]2C	8.91 µM [falling, partial curve]	–
COC(=O)CNC(=O)N1CCN(S(=O)(=O)c2ccc3c(ccn3C)c2)CC1	0.282 µM [falling, full curve]	–
C/C(=N\N1CCN(c2ccc(Cl)cc2)CC1)c1cccc([N+](=O)[O-])c1	0.282 µM [falling, full curve, poor fit]	–
COc1ccc(Cn2nc(C)cc2C)cc1OC	17.8 µM [rising, single point]	12.6 µM [rising, single point]
O=C(C[n+]1ccc(Cc2ccccc2)cc1)Nc1ccccc1	20 µM [rising, single point]	11.2 µM [rising, partial curve]
Cc1ccc(-c2nn(-c3ccccc3)cc2CNCc2ccccc2)cc1	28.2 µM [falling, partial curve, poor fit]	35.5 µM [falling, partial curve, poor fit]
Cc1ccc(NC(=O)c2ncoc2-c2ccco2)cc1Cl	0.0447 µM [falling, full curve, poor fit]	–
Cc1cccc(C)c1NC(=O)Cn1c(SCC(=O)NCc2ccccc2)nc2ccccc21	35.5 µM [rising, single point]	–
Cc1cc(=O)[nH]c2nnc(SCc3ccc(C(F)(F)F)cc3)n12	0.0316 µM [falling, full curve, poor fit]	–
O=C1NC(=Nc2ccc(Cl)cc2)SC1Cc1cccc(Cl)c1Cl (configuration not stated)	35.5 µM [rising, single point]	–

SMILES	AC50 [1]	AC50 [2]
CCOC(=O)c1[nH]c(C)c(CCC(=O)Nc2cccc(SC)c2)c1C	2.24 µM [rising, full curve]	1 µM [rising, full curve]
CCN(CCCNC(=O)CN(C)S(=O)(=O)c1cccc2nsnc12)c1ccccc1	–	0.0178 µM [rising, full curve, poor fit]
CCn1c(=O)c(C(=O)CN2CCN(S(=O)(=O)c3ccc(C)cc3C)CC2)c(N)n(Cc2ccccc2)c1=O	15.8 µM [rising, single point]	–
Cc1cccc(-n2nc(CC#N)c(C#N)c2N)c1	5.01 µM [rising, single point]	0.0501 µM [rising, full curve]
S=C(Nc1ccc2nsnc2c1)N1CCCCC1	20 µM [rising, single point]	10 µM [rising, partial curve]
C=CCN1C=C2C(=O)C(C)(OC(=O)c3ccc(OC)cc3)C(=O)C(c3ccco3)=C2C=C1CCCC (configuration not stated)	3.98 µM [rising, single point]	–
COc1ccc(Nc2nc(N3CCCCC3)c3ccccc3n2)cc1	28.2 µM [falling, partial curve]	35.5 µM [falling, single point]
CCOc1ccc(OC(=O)c2c(-c3ccccc3Cl)noc2C)cc1	–	0.224 µM [falling, full curve, poor fit]
CCN(C(=O)C1CCCN(c2ncnc3c2nc2n3CCCCC2)C1)c1cccc(C)c1 (configuration not stated)	0.02 µM [falling, full curve, poor fit]	–
O=[N+]([O-])c1ccc(Oc2cccc(Br)c2)c2ccncc12	35.5 µM [rising, single point]	–
Cc1ccc(NC(=O)CN2C(=O)c3ccccc3Sc3ccc(C(=O)N4CCOCC4)cc32)c(Cl)c1	–	0.00794 µM [falling, full curve, poor fit]
CC(=O)c1cc2c(cc1NS(=O)(=O)c1ccc3c(c1)OCCO3)OCO2	12.6 µM [rising, single point]	–
Cc1cccc(C(=O)Nc2nnc(-c3ccco3)o2)c1	20 µM [rising, single point]	–
Cc1nn(-c2ccccc2Cl)c(Cl)c1/C=N/Nc1nc2ccccc2s1	2 µM [rising, partial curve, poor fit]	–
Cc1conc1NC(c1cccs1)c1ccc2cccnc2c1O (configuration not stated)	31.6 µM [rising, single point]	–
Cn1c(SCC(=O)NC2CCCC2)nnc1-c1ccncc1	–	0.0251 µM [rising, full curve, poor fit]
CC(=O)Oc1ccc2ccccc2c1C(NC(=O)Cc1ccccc1)c1ccc(Cl)cc1 (configuration not stated)	17.8 µM [falling, partial curve]	11.2 µM [falling, partial curve]
COc1cc(OC)cc(-c2nc3ccccc3c(=O)n2OC(=O)c2ccc(C)c(C)c2)c1	17.8 µM [rising, partial curve]	15.8 µM [rising, partial curve, poor fit]

Part of the list above in a different format.
SMILES,AC50 [1],AC50 [2]
S=C(Nc1ccc2nsnc2c1)N1CCCCC1,"20 µM [rising, single point]","10 µM [rising, partial curve]"
COc1ccc(Nc2nc(N3CCCCC3)c3ccccc3n2)cc1,"28.2 µM [falling, partial curve]","35.5 µM [falling, single point]"
CCN(C(=O)C1CCCN(c2ncnc3c2nc2n3CCCCC2)C1)c1cccc(C)c1 (configuration not stated),"0.02 µM [falling, full curve, poor fit]",–
Cc1ccc(NC(=O)CN2C(=O)c3ccccc3Sc3ccc(C(=O)N4CCOCC4)cc32)c(Cl)c1,–,"0.00794 µM [falling, full curve, poor fit]"
Cc1cccc(C(=O)Nc2nnc(-c3ccco3)o2)c1,"20 µM [rising, single point]",–
CC(=O)Oc1ccc2ccccc2c1C(NC(=O)Cc1ccccc1)c1ccc(Cl)cc1 (configuration not stated),"17.8 µM [falling, partial curve]","11.2 µM [falling, partial curve]"
COc1cc(OC)cc(-c2nc3ccccc3c(=O)n2OC(=O)c2ccc(C)c(C)c2)c1,"17.8 µM [rising, partial curve]","15.8 µM [rising, partial curve, poor fit]"
